Data: article PMC11873240
No constants are given. Whether binding was seen depends on the method and setting. In cells and extracts the contact can be indirect. Some binding calls cover weakened binding; strength is not graded here.

Biological target: T1, Phospholipase C β4 (mouse (endogenous in BMMs and preosteoclasts)) (UniProt Q91UZ1)
T1 sequence: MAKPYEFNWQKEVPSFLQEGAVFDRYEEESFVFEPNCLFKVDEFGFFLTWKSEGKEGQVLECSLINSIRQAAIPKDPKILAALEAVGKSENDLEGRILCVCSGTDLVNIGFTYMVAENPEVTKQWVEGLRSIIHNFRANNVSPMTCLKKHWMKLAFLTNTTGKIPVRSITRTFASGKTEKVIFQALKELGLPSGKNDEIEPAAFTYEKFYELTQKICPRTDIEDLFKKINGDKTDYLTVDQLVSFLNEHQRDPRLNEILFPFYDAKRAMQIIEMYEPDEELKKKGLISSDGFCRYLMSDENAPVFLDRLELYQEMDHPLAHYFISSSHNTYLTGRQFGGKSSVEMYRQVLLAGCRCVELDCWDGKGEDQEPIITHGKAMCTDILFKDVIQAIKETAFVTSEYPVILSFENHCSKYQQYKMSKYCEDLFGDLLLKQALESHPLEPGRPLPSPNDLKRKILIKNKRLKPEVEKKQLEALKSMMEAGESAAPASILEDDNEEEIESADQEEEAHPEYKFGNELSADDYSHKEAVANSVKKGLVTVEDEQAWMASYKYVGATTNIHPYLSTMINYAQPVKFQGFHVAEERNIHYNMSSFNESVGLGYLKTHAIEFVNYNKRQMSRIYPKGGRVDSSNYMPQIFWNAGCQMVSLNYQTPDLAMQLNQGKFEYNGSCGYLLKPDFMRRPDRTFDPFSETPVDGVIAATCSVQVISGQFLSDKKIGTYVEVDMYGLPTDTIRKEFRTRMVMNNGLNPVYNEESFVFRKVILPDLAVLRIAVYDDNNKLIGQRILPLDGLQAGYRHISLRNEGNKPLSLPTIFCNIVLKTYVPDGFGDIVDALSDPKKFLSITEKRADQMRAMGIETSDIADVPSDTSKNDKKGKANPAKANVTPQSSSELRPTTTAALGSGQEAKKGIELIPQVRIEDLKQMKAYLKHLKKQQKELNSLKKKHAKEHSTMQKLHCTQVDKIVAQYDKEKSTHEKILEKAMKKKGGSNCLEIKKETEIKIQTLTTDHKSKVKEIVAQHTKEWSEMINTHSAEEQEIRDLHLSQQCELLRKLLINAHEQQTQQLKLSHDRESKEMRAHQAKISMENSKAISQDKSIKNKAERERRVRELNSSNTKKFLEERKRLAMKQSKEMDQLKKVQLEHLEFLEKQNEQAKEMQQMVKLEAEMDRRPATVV
Assay: co-IP; lysate of serum- and cytokine-starved BMMs stimulated with RANKL (50 ng/ml) for the indicated times; IP with anti-PLCβ4 antibody; immunoblot with anti-MKK3, anti-p38 and anti-PLCβ4

B1: MAPK kinase 3 (enzyme, UniProt O09110 1-347)
chain: MESPAASPPASLPQTKGKSKRKKDLRISCVSKPPVSNPTPPRNLDSRTFITIGDRNFEVEADDLVTISELGRGAYGVVEKVRHAQSGTIMAVKRIRATVNTQEQKRLLMDLDINMRTVDCFYTVTFYGALFREGDVWICMELMDTSLDKFYRKVLEKNMKIPEDILGEIAVSIVRALEHLHSKLSVIHRDVKPSNVLINKEGHVKMCDFGISGYLVDSVAKTMDAGCKPYMAPERINPELNQKGYNVKSDVWSLGITMIEMAILRFPYESWGTPFQQLKQVVEEPSPQLPADQFSPEFVDFTSQCLRKNPAERMSYLELMEHPFFTLHKTKKTDIAAFVKEILGEDS
  binding: binds
